Experimental data reported in US20250243233A1, “BIOBASED SURFACTANTS” (ECOLE POLYTECHNIQUE FEDERALE DE LAUSANNE (EPFL), priority 2022, published 2025).
Some results were stated once for a whole list of compounds, not compound by compound.

Assay: Emulsion stability measurements (water/cyclohexane emulsions, bright-field microscope)
Type: physicochemical
Settings: 1 ml water + 2 ml cyclohexane containing surfactant at 0.1%, vortex 30 s, FIG. 1b and 1c
Experimental: The emulsions were prepared by mixing 1 ml of water (with 1 mg/ml of Acian blue dye) and 2 ml cyclohexane containing 3,5-O-dodecylidene-xylose or 2-((dodecyloxy)methyl) tetrahydrofuran-3,4-diol) at a concentration of 0.1% and then mixed by vortex for 30 s.
Emulsions were characterized using a bright-field microscope (Leitz Ergolux) during the storage after preparation. […] Besides, a water/oil emulsion (67% water and 33% cyclohexane) containing 1% 3,5-O-dodecylidene-xylose was kept for about 1 year to observe its possible destablization.

In the case of 3,5-O-dodecylidene-xylose [MAX12], the “time aqueous bubbles in oil phase maintain stable without obvious coalescence” value is reported as “at least 30 days”.
